No constants are given. Whether binding was seen depends on the method and setting. Some results given as binding are weak or reduced against the parent protein; the word gives no strength. Where a sequence is shown, tags or fusion partners need not be part of it.
Key:
[1] = target: T1, gC1qR, the receptor of the globular part of the complement protein C1q, from rat brain membrane fractions (rat) (UniProt O35796); assay: pull-down of rat brain membrane fraction on a TLQP-21 monomeric avidin column, SDS-PAGE, silver staining, LC-MS/MS
T1 sequence (looked up): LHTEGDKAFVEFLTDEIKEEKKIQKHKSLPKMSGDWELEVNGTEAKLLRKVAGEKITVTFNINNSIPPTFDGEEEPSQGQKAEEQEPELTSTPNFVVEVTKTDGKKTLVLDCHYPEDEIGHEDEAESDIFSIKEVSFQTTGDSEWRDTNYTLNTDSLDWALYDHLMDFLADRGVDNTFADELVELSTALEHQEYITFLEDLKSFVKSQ

[2] = target: T1, gC1qR, the receptor of the globular part of the complement protein C1q, from rat brain membrane fractions (rat); assay: pull-down of P4 rat brain membrane fractions on a TLQP-21 avidin column, silver staining, LC-MS/MS Orbitrap
[3] = target: T1, gC1qR, the receptor of the globular part of the complement protein C1q, from rat brain membrane fractions (rat); assay: TLQP-21 monomeric avidin column eluates, Western blot for gC1qR

Measured: binding

TLQPPASSRRRHFHHALPPARC (biotin covalently attached via the amide bond at the N-terminus) [biotin-tagged TLQP-21 attached to a monomeric avidin column]
binds: all assays above

Reference: US20140370024A1 (IMPERIAL INNOVATIONS, published 2014)
